Reference: article PMC9299836 (eLife, 2022)
Further values from the same series stand in other lists.

Protein sequences, listed by entry. Tags and fused reporters are not part of them. Residues count along the entry.
UniProt Q14BI2, 19-872 A548F: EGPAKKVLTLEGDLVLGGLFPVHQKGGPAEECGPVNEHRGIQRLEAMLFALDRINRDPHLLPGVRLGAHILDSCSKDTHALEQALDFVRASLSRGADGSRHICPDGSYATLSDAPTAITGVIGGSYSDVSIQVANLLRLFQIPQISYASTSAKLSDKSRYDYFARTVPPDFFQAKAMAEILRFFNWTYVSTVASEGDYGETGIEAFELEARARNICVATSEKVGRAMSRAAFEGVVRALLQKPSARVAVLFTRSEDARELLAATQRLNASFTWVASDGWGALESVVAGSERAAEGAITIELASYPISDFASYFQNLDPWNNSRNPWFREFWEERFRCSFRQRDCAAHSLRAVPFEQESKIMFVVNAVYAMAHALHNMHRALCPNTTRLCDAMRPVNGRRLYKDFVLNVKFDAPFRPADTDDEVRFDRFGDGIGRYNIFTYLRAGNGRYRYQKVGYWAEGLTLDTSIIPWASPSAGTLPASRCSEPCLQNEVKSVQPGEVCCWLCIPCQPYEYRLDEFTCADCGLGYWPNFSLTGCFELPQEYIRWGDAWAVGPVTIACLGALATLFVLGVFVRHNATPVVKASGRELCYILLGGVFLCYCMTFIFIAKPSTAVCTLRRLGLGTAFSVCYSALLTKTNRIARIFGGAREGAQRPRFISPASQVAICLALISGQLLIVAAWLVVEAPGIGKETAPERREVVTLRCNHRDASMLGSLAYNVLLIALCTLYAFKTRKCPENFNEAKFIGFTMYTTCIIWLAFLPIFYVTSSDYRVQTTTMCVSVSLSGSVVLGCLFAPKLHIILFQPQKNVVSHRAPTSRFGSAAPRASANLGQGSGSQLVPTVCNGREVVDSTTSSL

Molecular target: mGluR2 (Mus musculus, UniProt Q14BI2, A548F)
Assay: smFRET of azi-CRD: cross-correlation of donor and acceptor intensities (CRD dynamics) and HMM transition density plots;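 note: single detergent-solubilized receptors captured on antibody-coated flow cells via C-terminal FLAG-tag, imaged by smFRET, donor and acceptor intensity traces from three independent biological replicates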

Cross Correlation, Mean (0μM Glutamate + GPT/Pyruvate + 5μM MNI-137, Time 0 s): -0.2459 | Cross Correlation, Mean (0μM Glutamate + GPT/Pyruvate + 5μM MNI-137, Time 0 s, N 3): -0.2459 | Cross Correlation, Mean (0μM Glutamate + GPT/Pyruvate + 5μM MNI-137, Time 0.05 s): -0.07085 | Cross Correlation, Mean (0μM Glutamate + GPT/Pyruvate + 5μM MNI-137, Time 0.05 s, N 3): -0.07085 | Cross Correlation, Mean (0μM Glutamate + GPT/Pyruvate + 5μM MNI-137, Time 0.1 s): -0.0397 | Cross Correlation, Mean (0μM Glutamate + GPT/Pyruvate + 5μM MNI-137, Time 0.1 s, N 3): -0.0397 | Cross Correlation, Mean (0μM Glutamate + GPT/Pyruvate + 5μM MNI-137, Time 0.15 s): -0.03694 | Cross Correlation, Mean (0μM Glutamate + GPT/Pyruvate + 5μM MNI-137, Time 0.15 s, N 3): -0.03694 | Cross Correlation, Mean (0μM Glutamate + GPT/Pyruvate + 5μM MNI-137, Time 0.2 s, N 3): -0.028 | Cross Correlation, Mean (0μM Glutamate + GPT/Pyruvate + 5μM MNI-137, Time 0.25 s, N 3): -0.03232 | Cross Correlation, Mean (0μM Glutamate + GPT/Pyruvate + 5μM MNI-137, Time 0.3 s, N 3): -0.03245 | Cross Correlation, Mean (0μM Glutamate + GPT/Pyruvate + 5μM MNI-137, Time 0.35 s, N 3): -0.03285 | Cross Correlation, Mean (0μM Glutamate + GPT/Pyruvate + 5μM MNI-137, Time 0.4 s, N 3): -0.02992 | Cross Correlation, Mean (0μM Glutamate + GPT/Pyruvate + 5μM MNI-137, Time 0.45 s, N 3): -0.02563 | Cross Correlation, Mean (0μM Glutamate + GPT/Pyruvate + 5μM MNI-137, Time 0.5 s, N 3): -0.0232 | Cross Correlation, Mean (0μM Glutamate + GPT/Pyruvate + 5μM MNI-137, Time 0.55 s, N 3): -0.0254 | Cross Correlation, Mean (0μM Glutamate + GPT/Pyruvate + 5μM MNI-137, Time 0.6 s, N 3): -0.02539 | Cross Correlation, Mean (0μM Glutamate + GPT/Pyruvate + 5μM MNI-137, Time 0.65 s, N 3): -0.02363 | Cross Correlation, Mean (0μM Glutamate + GPT/Pyruvate + 5μM MNI-137, Time 0.7 s, N 3): -0.02361 | Cross Correlation, Mean (0μM Glutamate + GPT/Pyruvate + 5μM MNI-137, Time 0.8 s, N 3): -0.02074 | Cross Correlation, Mean (0μM Glutamate + GPT/Pyruvate + 5μM MNI-137, Time 0.85 s, N 3): -0.0233 | Cross Correlation, Mean (0μM Glutamate + GPT/Pyruvate + 5μM MNI-137, Time 0.9 s, N 3): -0.02522 | Cross Correlation, Mean (0μM Glutamate + GPT/Pyruvate + 5μM MNI-137, Time 0.95 s, N 3): -0.02254 | Cross Correlation, Mean (0μM Glutamate + GPT/Pyruvate + 5μM MNI-137, Time 1 s, N 3): -0.02263 | Cross Correlation, Mean (0μM Glutamate + GPT/Pyruvate + 5μM MNI-137, Time 1.05 s, N 3): -0.01654 | Cross Correlation, Mean (0μM Glutamate + GPT/Pyruvate + 5μM MNI-137, Time 1.1 s, N 3): -0.01694 | Cross Correlation, Mean (0μM Glutamate + GPT/Pyruvate + 5μM MNI-137, Time 1.15 s, N 3): -0.0245 | Cross Correlation, Mean (0μM Glutamate + GPT/Pyruvate + 5μM MNI-137, Time 1.2 s, N 3): -0.02011 | Cross Correlation, Mean (0μM Glutamate + GPT/Pyruvate + 5μM MNI-137, Time 1.25 s, N 3): -0.02479 | Cross Correlation, Mean (0μM Glutamate + GPT/Pyruvate + 5μM MNI-137, Time 1.3 s, N 3): -0.01941 | Cross Correlation, Mean (0μM Glutamate + GPT/Pyruvate + 5μM MNI-137, Time 1.35 s, N 3): -0.01897 | Cross Correlation, Mean (0μM Glutamate + GPT/Pyruvate + 5μM MNI-137, Time 1.4 s, N 3): -0.02381 | Cross Correlation, Mean (0μM Glutamate + GPT/Pyruvate + 5μM MNI-137, Time 1.45 s, N 3): -0.01493 | Cross Correlation, Mean (0μM Glutamate + GPT/Pyruvate + 5μM MNI-137, Time 1.5 s, N 3): -0.01697 | Cross Correlation, Mean (0μM Glutamate + GPT/Pyruvate + 5μM MNI-137, Time 1.6 s, N 3): -0.01709 | Cross Correlation, Mean (0μM Glutamate + GPT/Pyruvate + 5μM MNI-137, Time 1.65 s, N 3): -0.01348 | Cross Correlation, Mean (0μM Glutamate + GPT/Pyruvate + 5μM MNI-137, Time 1.7 s, N 3): -0.01427 | Cross Correlation, Mean (0μM Glutamate + GPT/Pyruvate + 5μM MNI-137, Time 1.75 s, N 3): -0.0161 | Cross Correlation, Mean (0μM Glutamate + GPT/Pyruvate + 5μM MNI-137, Time 1.8 s, N 3): -0.01106 | Cross Correlation, Mean (0μM Glutamate + GPT/Pyruvate + 5μM MNI-137, Time 1.85 s, N 3): -0.00832 | Cross Correlation, Mean (0μM Glutamate + GPT/Pyruvate + 5μM MNI-137, Time 1.9 s, N 3): -0.01466 | Cross Correlation, Mean (0μM Glutamate + GPT/Pyruvate + 5μM MNI-137, Time 1.95 s): -0.01527 | Cross Correlation, Mean (0μM Glutamate + GPT/Pyruvate + 5μM MNI-137, Time 1.95 s, N 3): -0.01527 | Cross Correlation, Mean (0μM Glutamate + GPT/Pyruvate + 5μM MNI-137, Time 2 s): -0.01535 | Cross Correlation, Mean (0μM Glutamate + GPT/Pyruvate + 5μM MNI-137, Time 2 s, N 3): -0.01535 | Cross Correlation, Mean (0μM Glutamate + GPT/Pyruvate + 5μM MNI-137, Time 2.05 s): -0.01353 | Cross Correlation, Mean (0μM Glutamate + GPT/Pyruvate + 5μM MNI-137, Time 2.05 s, N 3): -0.01353 | Cross Correlation, Mean (0μM Glutamate + GPT/Pyruvate + 5μM MNI-137, Time 2.1 s): -0.02329 | Cross Correlation, Mean (0μM Glutamate + GPT/Pyruvate + 5μM MNI-137, Time 2.1 s, N 3): -0.02329 | Cross Correlation, Mean (0μM Glutamate + GPT/Pyruvate + 5μM MNI-137, Time 2.15 s): -0.01414 | Cross Correlation, Mean (0μM Glutamate + GPT/Pyruvate + 5μM MNI-137, Time 2.15 s, N 3): -0.01414 | Cross Correlation, Mean (0μM Glutamate + GPT/Pyruvate + 5μM MNI-137, Time 2.2 s): -0.01305 | Cross Correlation, Mean (0μM Glutamate + GPT/Pyruvate + 5μM MNI-137, Time 2.2 s, N 3): -0.01305 | Cross Correlation, Mean (0μM Glutamate + GPT/Pyruvate + 5μM MNI-137, Time 2.25 s): -0.02083 | Cross Correlation, Mean (0μM Glutamate + GPT/Pyruvate + 5μM MNI-137, Time 2.25 s, N 3): -0.02083 | Cross Correlation, Mean (0μM Glutamate + GPT/Pyruvate + 5μM MNI-137, Time 2.3 s): -0.0234 | Cross Correlation, Mean (0μM Glutamate + GPT/Pyruvate + 5μM MNI-137, Time 2.3 s, N 3): -0.0234 | Cross Correlation, Mean (0μM Glutamate + GPT/Pyruvate + 5μM MNI-137, Time 2.35 s): -0.01415 | Cross Correlation, Mean (0μM Glutamate + GPT/Pyruvate + 5μM MNI-137, Time 2.35 s, N 3): -0.01415 | Cross Correlation, Mean (0μM Glutamate + GPT/Pyruvate + 5μM MNI-137, Time 2.4 s): -0.00877 | Cross Correlation, Mean (0μM Glutamate + GPT/Pyruvate + 5μM MNI-137, Time 2.4 s, N 3): -0.00877 | Cross Correlation, Mean (0μM Glutamate + GPT/Pyruvate + 5μM MNI-137, Time 2.45 s): -0.01529 | Cross Correlation, Mean (0μM Glutamate + GPT/Pyruvate + 5μM MNI-137, Time 2.45 s, N 3): -0.01529 | Cross Correlation, Mean (0μM Glutamate + GPT/Pyruvate + 5μM MNI-137, Time 2.5 s): -0.01293 | Cross Correlation, Mean (0μM Glutamate + GPT/Pyruvate + 5μM MNI-137, Time 2.5 s, N 3): -0.01293 | Cross Correlation, Mean (0μM Glutamate + GPT/Pyruvate + 5μM MNI-137, Time 2.55 s): -0.01664 | Cross Correlation, Mean (0μM Glutamate + GPT/Pyruvate + 5μM MNI-137, Time 2.55 s, N 3): -0.01664 | Cross Correlation, Mean (0μM Glutamate + GPT/Pyruvate + 5μM MNI-137, Time 2.6 s): -0.01359 | Cross Correlation, Mean (0μM Glutamate + GPT/Pyruvate + 5μM MNI-137, Time 2.6 s, N 3): -0.01359 | Cross Correlation, Mean (0μM Glutamate + GPT/Pyruvate + 5μM MNI-137, Time 2.65 s): -0.01834 | Cross Correlation, Mean (0μM Glutamate + GPT/Pyruvate + 5μM MNI-137, Time 2.65 s, N 3): -0.01834 | Cross Correlation, Mean (0μM Glutamate + GPT/Pyruvate + 5μM MNI-137, Time 2.7 s): -0.011 | Cross Correlation, Mean (0μM Glutamate + GPT/Pyruvate + 5μM MNI-137, Time 2.7 s, N 3): -0.011 | Cross Correlation, Mean (0μM Glutamate + GPT/Pyruvate + 5μM MNI-137, Time 2.8 s): -0.0107 | Cross Correlation, Mean (0μM Glutamate + GPT/Pyruvate + 5μM MNI-137, Time 2.8 s, N 3): -0.0107 | Cross Correlation, Mean (0μM Glutamate + GPT/Pyruvate + 5μM MNI-137, Time 2.85 s): -0.0118 | Cross Correlation, Mean (0μM Glutamate + GPT/Pyruvate + 5μM MNI-137, Time 2.85 s, N 3): -0.0118 | Cross Correlation, Mean (0μM Glutamate + GPT/Pyruvate + 5μM MNI-137, Time 2.9 s): -0.0114 | Cross Correlation, Mean (0μM Glutamate + GPT/Pyruvate + 5μM MNI-137, Time 2.9 s, N 3): -0.0114 | Cross Correlation, Mean (0μM Glutamate + GPT/Pyruvate + 5μM MNI-137, Time 2.95 s): -0.01263 | Cross Correlation, Mean (0μM Glutamate + GPT/Pyruvate + 5μM MNI-137, Time 2.95 s, N 3): -0.01263 | Cross Correlation, Mean (15μM Glutamate + 5μM MNI-137, Time 0 s): -0.3705 | Cross Correlation, Mean (15μM Glutamate + 5μM MNI-137, Time 0.05 s): -0.1742 | Cross Correlation, Mean (15μM Glutamate + 5μM MNI-137, Time 0.1 s): -0.13 | Cross Correlation, Mean (15μM Glutamate + 5μM MNI-137, Time 0.15 s): -0.1053 | Cross Correlation, Mean (15μM Glutamate + 5μM MNI-137, Time 2 s): -0.01674 | Cross Correlation, Mean (15μM Glutamate + 5μM MNI-137, Time 2.05 s): -0.01757 | Cross Correlation, Mean (15μM Glutamate + 5μM MNI-137, Time 2.1 s): -0.01085 | Cross Correlation, Mean (15μM Glutamate + 5μM MNI-137, Time 2.15 s): -0.01347 | Cross Correlation, Mean (15μM Glutamate + 5μM MNI-137, Time 2.2 s): -0.01154 | Cross Correlation, Mean (15μM Glutamate + 5μM MNI-137, Time 2.25 s): -0.01291 | Cross Correlation, Mean (15μM Glutamate + 5μM MNI-137, Time 2.3 s): -0.01444 | Cross Correlation, Mean (15μM Glutamate + 5μM MNI-137, Time 2.35 s): -0.01299
Substance: MNI-137
